The chains are these.
B1: full-length mouse PLK5 fused to the GAL4 activation domain (enzyme, UniProt Q4FZD7 1-595)
chain: MEPRSRRRRSRQLVATFLRDPGSGRVYRRGKLIGKGAFSRCYKLTDMSTSAVFALKVVPRGGAGRLRLRGKVEREIALHSRLRHRNIVAFHAHFADRDHVYMVLEYCSRQSLAHVLKVRRTLTEPEVRYYLRGLVSGLRYLHQQRIVHRDLKPSNFFLNKNMEVKIGDLGLAARVGPAGRCHRVLCGTPNFQAPEVVSRNGHSCKSDIWALGCIMYTVLTGTPPFAAAPLSEMYQNIRDGHYLEPTHLSPSARSLIARLLAPDPAERPSLDHLLQDDFFSQGFTPERLPPHSCHSPPVFAFPPPLGRLFRKVGQLLLTQCRPPCPFTSKEASGPGEEGTEPDHMEAGNEERDPLCTEGRIHLLTLGTPRTGLAGPKGSLALQLEVATRKLFLCLDAGPMAGQDPPGEQRPVLWAPKWVDYSLKYGFGYQLSDGGSGVLFRDGSHMALRPQGGHVSYQPDQGTLWTFTLRDVPSPLRAKLAVLRLFACYMQRRLREEGTVPMPATPASPDISLLSFIADSQAMVMLFSNGTVQVSLKTSQTQLVLSGEDEDLLLTLQEPGGPAVGVSYTLDVLRSHGFTLAVHHHLRHGLHLLQSV
B2: polo-box domain of human PLK4 fused to the GAL4 activation domain (domain or fragment, UniProt O00444 886-964)
chain: QLLKSVFVKNVGWATQLTSGAVWVQFNDGSQLVVQAGVSSISYTSPNGQTTRYGENEKLPDYIKQKLQCLSSILLMFSN
B3: full-length human PLK5 fused to the GAL4 activation domain (protein, UniProt Q496M5 1-336)
chain: MYTVLTGTPPFMASPLSEMYQNIREGHYPEPAHLSANARRLIVHLLAPNPAERPSLDHLLQDDFFTQGFTPDRLPAHSCHSPPIFAIPPPLGRIFRKVGQRLLTQCRPPCPFTPKEASGPGEGGPDPDSMEWDGESSLSAKEVPCLEGPIHLVAQGTLQSDLAGPEGSRRPEVEAALRHLQLCLDVGPPATQDPLGEQQPILWAPKWVDYSSKYGFGYQLLDGGRTGRHPHGPATPRREGTLPTPVPPAGPGLCLLRFLASEHALLLLFSNGMVQVSFSGVPAQLVLSGEGEGLQLTLWEQGSPGTSYSLDVPRSHGCAPTTGQHLHHALRMLQSI

No constants are given. Whether binding was seen depends on the method and setting. Tags and fused reporters may be left off the sequences shown.

We go through three molecules from paper PMC5006980.

The experiment has as its target full-length PFV Gag fused to the N-terminus of the GAL4 DNA binding domain (Gag-DB) (prototype foamy virus (PFV)). Nature of the experiment: two-hybrid; directed Y2H, Matchmaker System, S. cerevisiae AH109; baits fused to GAL4 DB, preys fused to GAL4 AD; growth on quadruple-dropout (-Leu/-Trp/-Ade/-His) agar after two to four days at 30°C.
In the case of B1, the binding result was “no binding”. For B2, the binding entry is on record as “no binding”. The entry for B3 is “no binding”.
